Record: PubChem BioAssay AID1259308 (NCATS, 2017)
Shown is a random part of about 59,000 deposited reagents. About 1,510 of them (2.6%) count as active. 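Calls use total luciferase alone and ignore viability, so some active siRNAs may act by altering cell number.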 Further read-outs or replicates are left out here.

Screen: 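Knock-downs that increase output of a recombinant reporter protein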 (primary screen)
System: human HEK293 embryonic kidney cells stably expressing firefly luciferase (HEK-CMV-Luc2-Hygro)
Reagent: single siRNA against human genes, 0.8 pmol siRNA per well
Timing: 72 h
Read-out: 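Reporter luminescence and viable-cell signal on separate replicate plates, given as percent of non-targeting control and median/MAD z-scores, plus per-cell luciferase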
Scale: total luciferase, z-score and total luciferase, % of control: higher = more reporter protein produced
Call rule: 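An siRNA counts as active if its total luciferase robust z-score exceeds 3; genes with two or more such siRNAs out of three were retested with fresh siRNAs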
Meaning of the calls: active = raised luciferase; inactive = no rise

gene | PubChem SID | total luciferase, z-score | total luciferase, % of control | call
PDK4 | SID160714064 | 0.465 | 91.1 | inactive
PDK4 | SID160714065 | 1.73 | 116 | inactive
PDK4 | SID160714066 | -0.923 | 63.5 | inactive
IPPK | SID160747935 | -0.392 | 74.1 | inactive
IPPK | SID160747936 | -1.68 | 48.5 | inactive
IPPK | SID160747937 | 0.681 | 95.4 | inactive
RFX5 | SID160715853 | 0.513 | 92.1 | inactive
RFX5 | SID160715854 | 5 | 181 | active
RFX5 | SID160715855 | -0.335 | 75.2 | inactive
FAM3D | SID160732473 | 0.0687 | 83.3 | inactive
FAM3D | SID160757044 | -0.079 | 80.3 | inactive
FAM3D | SID160757045 | -1.47 | 52.7 | inactive
KCNE5 | SID160736715 | 0.784 | 97.5 | inactive
KCNE5 | SID160736716 | -0.194 | 78 | inactive
KCNE5 | SID160736717 | -1.25 | 57 | inactive
CYP4X1 | SID160762643 | 1.45 | 111 | inactive
CYP4X1 | SID160762644 | 1.51 | 112 | inactive
CYP4X1 | SID160762645 | -0.501 | 71.9 | inactive
GLOD4 | SID160739902 | 1.13 | 104 | inactive
GLOD4 | SID160739903 | -0.114 | 79.6 | inactive
GLOD4 | SID160739904 | 1.61 | 114 | inactive
ELK4 | SID160759967 | 1.1 | 104 | inactive
ELK4 | SID160759978 | 0.266 | 87.2 | inactive
ELK4 | SID160759989 | -0.559 | 70.8 | inactive
RHPN2 | SID160753260 | -0.45 | 72.9 | inactive
RHPN2 | SID160753261 | -0.959 | 62.8 | inactive
RHPN2 | SID160753262 | 0.64 | 94.6 | inactive
UAP1 | SID160717241 | 0.967 | 101 | inactive
UAP1 | SID160717242 | 0.0139 | 82.2 | inactive
UAP1 | SID160717243 | 0.144 | 84.8 | inactive
KRT222 | SID160732404 | 2.9 | 140 | inactive
KRT222 | SID160756307 | -0.251 | 76.9 | inactive
KRT222 | SID160756308 | 0.577 | 93.4 | inactive
MOSMO | SID160773501 | 0.0581 | 83 | inactive
MOSMO | SID160773502 | 0.508 | 92 | inactive
MOSMO | SID160773503 | 1.04 | 102 | inactive
ITPR1 | SID160776056 | -0.67 | 68.6 | inactive
ITPR1 | SID160776057 | 0.731 | 96.4 | inactive
ITPR1 | SID160776058 | 0.367 | 89.2 | inactive
RPL15P17 | SID160771392 | 2.08 | 123 | inactive
RPL15P17 | SID160771394 | -0.231 | 77.3 | inactive
RPL15P17 | SID160771395 | 1.46 | 111 | inactive
PTCH2 | SID160720491 | 1.81 | 118 | inactive
PTCH2 | SID160720492 | -1.27 | 56.6 | inactive
PTCH2 | SID160720493 | 1.2 | 106 | inactive
PDAP1 | SID160730762 | 1.34 | 109 | inactive
PDAP1 | SID160730769 | -0.144 | 79 | inactive
PDAP1 | SID160730778 | -1.46 | 52.8 | inactive
ZNF492 | SID160746416 | -0.262 | 76.7 | inactive
ZNF492 | SID160746417 | -1.23 | 57.4 | inactive
ZNF492 | SID160746418 | -1.48 | 52.5 | inactive
ZNF787 | SID160756425 | 1.45 | 111 | inactive
ZNF787 | SID160756426 | -1.14 | 59.2 | inactive
ZNF787 | SID160756427 | 0.134 | 84.5 | inactive
OSM | SID160778452 | -0.44 | 73.1 | inactive
OSM | SID160778454 | 1.24 | 106 | inactive
OSM | SID160778455 | 3.56 | 153 | active

Part of the list above, reformatted.
{"gene":"IPPK","PubChem SID":"SID160747937","total luciferase, z-score":0.681,"total luciferase, % of control":95.4,"call":"inactive"}
{"gene":"RFX5","PubChem SID":"SID160715853","total luciferase, z-score":0.513,"total luciferase, % of control":92.1,"call":"inactive"}
{"gene":"RFX5","PubChem SID":"SID160715854","total luciferase, z-score":5,"total luciferase, % of control":181,"call":"active"}
{"gene":"RFX5","PubChem SID":"SID160715855","total luciferase, z-score":-0.335,"total luciferase, % of control":75.2,"call":"inactive"}
{"gene":"FAM3D","PubChem SID":"SID160732473","total luciferase, z-score":0.0687,"total luciferase, % of control":83.3,"call":"inactive"}
{"gene":"FAM3D","PubChem SID":"SID160757044","total luciferase, z-score":-0.079,"total luciferase, % of control":80.3,"call":"inactive"}
